The values below come from publication PMC8353492.

Chains of the proteins cited; added tags and fusions are not shown.
UniProt P14598: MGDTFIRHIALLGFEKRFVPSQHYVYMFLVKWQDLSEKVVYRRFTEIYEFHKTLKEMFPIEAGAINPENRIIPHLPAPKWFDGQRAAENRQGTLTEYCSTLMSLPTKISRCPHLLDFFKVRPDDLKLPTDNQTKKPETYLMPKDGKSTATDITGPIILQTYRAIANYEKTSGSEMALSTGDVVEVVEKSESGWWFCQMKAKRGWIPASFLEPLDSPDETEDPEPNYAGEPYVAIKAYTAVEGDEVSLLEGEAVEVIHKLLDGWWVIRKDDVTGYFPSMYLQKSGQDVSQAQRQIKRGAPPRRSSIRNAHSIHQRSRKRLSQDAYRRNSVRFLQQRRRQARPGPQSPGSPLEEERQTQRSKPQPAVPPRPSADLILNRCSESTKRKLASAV
UniProt P19878: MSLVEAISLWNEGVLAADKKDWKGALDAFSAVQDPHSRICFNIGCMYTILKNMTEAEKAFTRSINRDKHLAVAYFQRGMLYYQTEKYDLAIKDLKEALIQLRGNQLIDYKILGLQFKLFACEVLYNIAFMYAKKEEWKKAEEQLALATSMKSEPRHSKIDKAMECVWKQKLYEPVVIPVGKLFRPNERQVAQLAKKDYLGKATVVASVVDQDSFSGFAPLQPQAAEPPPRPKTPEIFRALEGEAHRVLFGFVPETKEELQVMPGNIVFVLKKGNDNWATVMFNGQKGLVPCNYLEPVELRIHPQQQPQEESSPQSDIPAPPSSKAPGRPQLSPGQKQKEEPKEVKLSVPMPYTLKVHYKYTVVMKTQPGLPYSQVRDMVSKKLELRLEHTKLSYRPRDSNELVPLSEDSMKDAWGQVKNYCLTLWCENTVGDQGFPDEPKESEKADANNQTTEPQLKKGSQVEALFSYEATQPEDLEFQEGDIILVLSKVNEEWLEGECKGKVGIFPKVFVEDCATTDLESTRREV

In test [1] the target is T1, gp91 (of cytochrome b558) in dHL60 cells (human (endogenous in HL60)) (UniProt P04839).
T1 sequence: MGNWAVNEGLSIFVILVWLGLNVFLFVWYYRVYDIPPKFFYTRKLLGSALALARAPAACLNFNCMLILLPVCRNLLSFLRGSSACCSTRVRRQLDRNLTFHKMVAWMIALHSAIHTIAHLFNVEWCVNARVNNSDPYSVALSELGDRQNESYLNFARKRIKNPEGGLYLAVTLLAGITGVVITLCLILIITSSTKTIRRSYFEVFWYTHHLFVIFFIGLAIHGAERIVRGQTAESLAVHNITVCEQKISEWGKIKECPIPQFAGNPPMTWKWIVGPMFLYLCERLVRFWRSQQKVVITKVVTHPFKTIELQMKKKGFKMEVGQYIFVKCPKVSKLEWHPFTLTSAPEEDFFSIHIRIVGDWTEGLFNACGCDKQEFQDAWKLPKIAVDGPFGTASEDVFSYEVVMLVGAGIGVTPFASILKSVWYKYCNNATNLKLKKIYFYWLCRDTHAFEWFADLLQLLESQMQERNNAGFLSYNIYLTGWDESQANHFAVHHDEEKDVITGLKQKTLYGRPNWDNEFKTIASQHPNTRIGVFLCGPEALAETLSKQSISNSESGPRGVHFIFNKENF
The test is described as follows: co-IP; as a5, in G12V Rac-expressing dHL60 cells; data not shown.

The target in test [2] is T1, gp91 (of cytochrome b558) in dHL60 cells (human (endogenous in HL60)). The test is described as follows: co-IP; PMA-stimulated dHL60 cells, time course; plasma membrane fraction in 5 mM MgCl2, 2% Triton X-100, 50 mM Tris-HCl pH 7.4; pulled down with magnetic agarose beads carrying a monoclonal gp91 antibody; Western blots for p40, p47, p67, Rac; also cells treated with SITS or DIDS (100 μM; recruitment of wt Rac significantly impeded) and Vav knocked-down cells with exogenous O2^− (∼2 μM). (Immunoblotting shows a protein as a band on a membrane.)

For test [3], the target named is T2, gp91 (NOX2) from the HEK293 cell line (UniProt P04839).
T2 sequence: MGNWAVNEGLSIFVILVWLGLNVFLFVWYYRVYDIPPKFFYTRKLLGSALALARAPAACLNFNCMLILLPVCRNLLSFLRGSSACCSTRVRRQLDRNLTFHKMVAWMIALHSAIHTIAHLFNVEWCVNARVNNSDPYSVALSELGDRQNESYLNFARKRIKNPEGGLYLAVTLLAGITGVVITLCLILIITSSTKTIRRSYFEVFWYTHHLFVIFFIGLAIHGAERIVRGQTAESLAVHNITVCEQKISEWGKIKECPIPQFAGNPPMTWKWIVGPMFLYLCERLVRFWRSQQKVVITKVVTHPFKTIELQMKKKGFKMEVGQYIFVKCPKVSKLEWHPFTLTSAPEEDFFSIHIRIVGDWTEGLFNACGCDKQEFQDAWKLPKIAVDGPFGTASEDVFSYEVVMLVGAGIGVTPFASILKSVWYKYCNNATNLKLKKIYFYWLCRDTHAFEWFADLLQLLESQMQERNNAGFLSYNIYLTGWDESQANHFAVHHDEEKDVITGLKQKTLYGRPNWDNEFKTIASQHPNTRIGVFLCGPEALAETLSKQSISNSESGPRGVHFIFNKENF
The test is described as follows: co-purification (heparin and hydroxyapatite chromatography); cytochrome b558 purified from a HEK293 cell line that stably expresses NOX2 with p22.

These are yes or no findings as the source states them, for the method shown. For some of these results: In cells and extracts the contact can be indirect. Some entries that bind do so weakly or less than the wild type.

Consider “p47 in dHL60 cells (from UniProt P14598 1-390)”, for which the binding result in test [1] and in test [2] was “binds” each time.

As to “p67 in dHL60 cells (from UniProt P19878 1-526)”, the binding result in test [1] and in test [2] was “binds” each time.

B1: p40 in dHL60 cells (protein, UniProt Q15080 1-339)
chain: MAVAQQLRAESDFEQLPDDVAISANIADIEEKRGFTSHFVFVIEVKTKGGSKYLIYRRYRQFHALQSKLEERFGPDSKSSALACTLPTLPAKVYVGVKQEIAEMRIPALNAYMKSLLSLPVWVLMDEDVRIFFYQSPYDSEQVPQALRRLRPRTRKVKSVSPQGNSVDRMAAPRAEALFDFTGNSKLELNFKAGDVIFLLSRINKDWLEGTVRGATGIFPLSFVKILKDFPEEDDPTNWLRCYYYEDTISTIKDIAVEEDLSSTPLLKDLLELTRREFQREDIALNYRDAEGDLVRLLSDEDVALMVRQARGLPSQKRLFPWKLHITQKDNYRVYNTMP
B1: the binding result in test [1] and in test [2] was “binds” each time.

B2: p22 from the HEK293 cell line (protein, UniProt P13498 1-195)
chain: MGQIEWAMWANEQALASGLILITGGIVATAGRFTQWYFGAYSIVAGVFVCLLEYPRGKRKKGSTMERWGQKYMTAVVKLFGPFTRNYYVRAVLHLLLSVPAGFLLATILGTACLAIASGIYLLAAVRGEQWTPIEPKPRERPQIGGTIKQPPSNPPPRPPAEARKKPSEEEAAVAAGGPPGGPQVNPIPVTDEVV
Regarding B2, the binding entry in test [3] is “binds”.
